Columns and labels:
in vivo = conditions: oral administration, Table I
ischiadic nerve of rats = experiment: Local analgesic effect (method of Truant and d'Amato), motor paralysis and its duration; format: in vivo; conditions: referred to Lidocaine
Excerpt: The local analgesic effect was investigated on the ischiadic nerve of rats by means of the method of Truant and d'Amato (Truant, A.P. and Wiedling, S.: Acta Chirurg. Scand. 116, 351 /1958/). Lidocaine served as reference substance.
In Table I below, the relative efficiency referred to Lidocaine and the duration of the effect on application of 0.5 % and 1.0 % concentrations of Lidocaine are given. […]

CCN(CC)CC(=O)Nc1c(C)cccc1C [Lidocaine, reference compound]
LD50 (in vivo): 220 mg/kg
Relative efficiency (ischiadic nerve of rats): 1.0
